For 1 substance, binding results are on record in PMC11176741.

Sequences of proteins named here, by UniProt entry; tags and fusion partners are left off.
UniProt Q9Y297: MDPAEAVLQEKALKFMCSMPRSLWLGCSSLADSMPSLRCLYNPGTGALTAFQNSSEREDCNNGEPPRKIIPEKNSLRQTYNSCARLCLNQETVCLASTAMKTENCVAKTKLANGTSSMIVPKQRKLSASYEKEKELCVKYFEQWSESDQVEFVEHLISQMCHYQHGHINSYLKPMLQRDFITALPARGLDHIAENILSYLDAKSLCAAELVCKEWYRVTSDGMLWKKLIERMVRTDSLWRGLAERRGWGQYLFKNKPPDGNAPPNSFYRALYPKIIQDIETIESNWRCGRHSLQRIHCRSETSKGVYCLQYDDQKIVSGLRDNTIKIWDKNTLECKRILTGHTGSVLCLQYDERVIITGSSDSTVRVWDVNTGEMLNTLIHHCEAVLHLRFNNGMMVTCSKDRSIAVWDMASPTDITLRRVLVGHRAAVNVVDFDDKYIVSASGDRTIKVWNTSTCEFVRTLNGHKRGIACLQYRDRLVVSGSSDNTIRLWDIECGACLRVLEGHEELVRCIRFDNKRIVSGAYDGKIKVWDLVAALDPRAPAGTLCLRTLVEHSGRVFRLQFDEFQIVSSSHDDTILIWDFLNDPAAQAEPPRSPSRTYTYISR
UniProt Q96DH6: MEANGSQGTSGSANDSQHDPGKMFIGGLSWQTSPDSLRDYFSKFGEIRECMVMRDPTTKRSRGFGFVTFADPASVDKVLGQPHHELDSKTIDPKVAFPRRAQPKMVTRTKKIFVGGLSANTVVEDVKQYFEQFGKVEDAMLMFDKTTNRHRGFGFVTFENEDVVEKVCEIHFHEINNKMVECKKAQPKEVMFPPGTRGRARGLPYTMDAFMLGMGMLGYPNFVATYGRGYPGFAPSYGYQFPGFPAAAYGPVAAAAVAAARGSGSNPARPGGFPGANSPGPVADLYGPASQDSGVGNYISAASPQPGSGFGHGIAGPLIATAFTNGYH

Results are given in words; binding and its absence hold for the method and conditions named. Binding seen in cells or lysates may run through a third protein. Some entries that bind do so weakly or less than the wild type.

The assay deals with β-transducin repeat containing protein (BTRC) E3 ubiquitin ligase, HA-tagged (UniProt Q9Y297). Nature of the assay: co-IP; IP with anti-HA antibody from KYSE150 cells transfected with HA-BTRC and Flag-MSI2, without circMALAT1 overexpression; MG132 (10 µM) for 12 h before harvesting; 1% NP-40 lysis buffer, 4°C, Protein A/G agarose beads; immunoblot.

On to “Musashi RNA Binding Protein 2 (MSI2), Flag-tagged (from UniProt Q96DH6 1-328)”, for which the binding entry is on record as “binds”.
